We go through seven compounds from PubChem BioAssay AID248 (DTP/NCI, 2004).

The list is a part of this screen's results and no random one: it gathers tests that were run many times, whatever their T/C, doses with no T/C, and many T/C values between a quarter and a half above the control. Other doses and runs of a compound stand elsewhere. T/C is the treated group as % of the vehicle group. Some entries give survivors of the animals treated and no T/C: the source holds a T/C of zero for them, seemingly a mark for toxic or unscored doses. Some survivor counts are full or nearly so, which does not show that the dose was tolerated: survival well below the control is almost never listed, so the zero probably covers shortened survival too. Survivors were counted at the toxicity check, usually on the fifth day, unless a day is given; later deaths do not show. Schedule codes are those of the source, taken here to give the interval after Q, in days (D) or hours (H), and the number of doses after X. Some schedules carry Z or #; the key to these is not given.

The assay deals with L1210 leukemia ip in BDF1 mice, survival T/C. Nature of the assay: NCI In Vivo Anticancer Drug Screen. Data for tumor model L1210 Leukemia (intraperitoneal) in B6D2F1 (BDF1) mice. The note with it: T/C endpoint: mean survival time, higher T/C = longer survival.

For the compound `O=C(Nc1ccccc1-c1ccc([N+](=O)[O-])cc1)c1ccc(-c2ccccc2)cc1`, the survivor count reads like this: (dose: 100.0 mg/kg/injection, schedule: Q04DX003 (ip), vehicle: saline) 6 of 6; (dose: 200.0 mg/kg/injection, schedule: Q04DX003 (ip), vehicle: saline) 6 of 6.
As for `COc1cc(NC(=O)Nc2cc(OC)c(OC)c(OC)c2)cc(OC)c1OC`, the survivor count reads like this: (dose: 200.0 mg/kg/injection, schedule: Q04DX003 (ip), vehicle: saline with Tween-80) 0 of 6; (dose: 400.0 mg/kg/injection, schedule: Q04DX003 (ip), vehicle: saline with Tween-80) 0 of 6.
As to `CNC(=O)OCC1=CC(=O)C(C)=CC1=O`, the survivor count (dose: 50.0 mg/kg/injection, schedule: Q04DX003 (ip), vehicle: gum acacia) was 0 of 6; the survivor count (dose: 100.0 mg/kg/injection, schedule: Q04DX003 (ip), vehicle: gum acacia) was 1 of 6; the survivor count (dose: 200.0 mg/kg/injection, schedule: Q04DX003 (ip), vehicle: gum acacia) was 0 of 6; the survivor count (dose: 400.0 mg/kg/injection, schedule: Q04DX003 (ip), vehicle: gum acacia) is given as 0 of 6.
As to `Cc1nc2ccccc2n1C`, the survivor count reads like this: (dose: 200.0 mg/kg/injection, schedule: Q01DX009 (ip), vehicle: saline with Tween-80) 3 of 6; (dose: 400.0 mg/kg/injection, schedule: Q01DX009 (ip), vehicle: saline with Tween-80) 0 of 6.
For `CN=C(c1ccc(NC(=O)c2ccc(C(=O)Nc3ccc(C(=NC)N(C)Cc4ccccc4)cc3)cc2)cc1)N(C)Cc1ccccc1`, the survivor count (dose: 15.0 mg/kg/injection, schedule: Q01DX Z (ip), vehicle: saline) is on record as 6 of 6.
Consider `O=C(O)C(Cl)Cl`, for which the survivor count (dose: 25.0 mg/kg/injection, schedule: Q01DX009 (ip), vehicle: saline) was 6 of 6; the survivor count (dose: 50.0 mg/kg/injection, schedule: Q01DX009 (ip), vehicle: saline) was 6 of 6; the survivor count (dose: 100.0 mg/kg/injection, schedule: Q01DX009 (ip), vehicle: saline) was 5 of 6; the survivor count (dose: 400.0 mg/kg/injection, schedule: Q04DX003 (ip), vehicle: saline) is 4 of 6.
For `O=[N+]([O-])c1cccn2cnnc12`, the survivor count reads like this: (dose: 200.0 mg/kg/injection, schedule: Q01DX001 (ip), vehicle: acetone) 0 of 6; (dose: 400.0 mg/kg/injection, schedule: Q01DX001 (ip), vehicle: acetone) 0 of 6.
